# Results: PubChem BioAssay (Tox21)
# Sequences of proteins named here, by UniProt entry; tags and fusion partners are left off. A change or cut given only in a name is not applied to a line headed by its entry.
# UniProt P28223, whole entry, looked up: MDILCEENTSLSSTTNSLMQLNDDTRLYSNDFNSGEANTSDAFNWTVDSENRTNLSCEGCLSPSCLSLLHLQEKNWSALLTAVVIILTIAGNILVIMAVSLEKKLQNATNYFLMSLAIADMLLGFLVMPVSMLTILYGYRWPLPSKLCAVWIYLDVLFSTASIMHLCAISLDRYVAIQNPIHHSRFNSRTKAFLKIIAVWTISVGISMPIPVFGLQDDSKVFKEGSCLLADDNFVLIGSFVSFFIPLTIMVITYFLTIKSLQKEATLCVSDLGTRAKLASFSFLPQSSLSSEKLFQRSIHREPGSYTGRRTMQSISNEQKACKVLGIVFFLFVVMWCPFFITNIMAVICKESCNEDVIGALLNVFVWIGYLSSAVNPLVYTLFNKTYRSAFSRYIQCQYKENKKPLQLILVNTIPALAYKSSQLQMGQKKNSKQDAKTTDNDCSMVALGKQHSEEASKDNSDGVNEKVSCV
# UniProt P11229: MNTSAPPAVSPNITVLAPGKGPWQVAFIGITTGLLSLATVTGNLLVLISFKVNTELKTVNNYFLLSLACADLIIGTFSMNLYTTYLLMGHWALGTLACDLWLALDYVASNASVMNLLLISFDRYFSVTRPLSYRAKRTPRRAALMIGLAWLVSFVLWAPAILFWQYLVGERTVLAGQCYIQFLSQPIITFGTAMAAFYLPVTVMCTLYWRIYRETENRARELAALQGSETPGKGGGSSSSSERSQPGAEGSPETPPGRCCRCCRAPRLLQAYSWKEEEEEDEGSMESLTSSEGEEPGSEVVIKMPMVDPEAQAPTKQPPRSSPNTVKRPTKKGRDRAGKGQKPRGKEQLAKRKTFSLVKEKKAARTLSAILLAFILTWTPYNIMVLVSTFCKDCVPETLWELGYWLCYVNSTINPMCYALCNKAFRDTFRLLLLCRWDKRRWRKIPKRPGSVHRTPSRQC
# Where “and” joins values, the source holds several entries; their conditions need not be identical. Equal values may be shown once. The shares of active, inactive and inconclusive entries below differ from those in the screen. Potencies of inconclusive entries are doubtful fits and often do not repeat. Calls of active or inactive are those of the source. Unless noted, calls come from the whole dose curve.
# Assays:
# [1] = p53 small molecule agonists, cell-based qHTS assay with human liver microsomes (AID 1963577); conditions: HCT-116 p53RE-bla with human liver microsomes, ratio, 16 h; activation: at 66 µM (top of the series) unless noted
# Procedure, shortened: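 16 h, 37 C exposure of p53RE-bla cells to compounds with human liver microsomes and NADPH (0.5 mg/mL final each); detection via LiveBLAzer mixture, 2 h dark at room temperature.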
# [2] = p53 small molecule agonists, cell-based qHTS assay with rat liver microsomes (AID 1963578); conditions: HCT-116 p53RE-bla, beta-lactamase ratio, 16 h; activation: at 66 µM (top of the series) unless noted; for activation: % is set by controls: 0 for no effect and ±100 for the full control effect
# Procedure, shortened: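 With rat liver microsomes and NADPH present (0.5 mg/mL final each), p53RE-bla cells are treated with compound for 16 h at 37 C. LiveBLAzer detection mixture is then applied for 2 h at room temperature in the dark.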
# [3] = p53 small molecule agonists, cell-based qHTS assay (AID 1963582; active = well fitted activation curve with a large enough effect in the signal ratio in the repeat runs, not every such curve was filed as active; inconclusive = weak or mixed curves; the % refers to the signal ratio; for activation: % is set by controls: 0 for no effect and ±100 for the full control effect); conditions: HCT-116 p53RE-bla reporter, beta-lactamase FRET ratio, 16 h; activation: at 66 µM (top of the series) unless noted
# Procedure, shortened: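 p53RE-bla reporter cells, compounds added in DMSO after 5 h plating, incubated 16 h at 37 C. Beta-lactamase read via 2 h room-temperature LiveBLAzer B/G FRET substrate, fluorescence intensity.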
# [4] = target: 5-hydroxytryptamine receptor 2A (Homo sapiens) (UniProt P28223); test: 5-hydroxytryptamine receptor 2A (HTR2A) small molecule antagonists, cell-based qHTS assay (AID 1963586); note: nearly all actives have a fitted effect of over 45% in size
# Procedure, shortened: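 Antagonist-mode intracellular calcium assay: DOI (4 nM) added after 5 min compound pre-incubation at room temperature to dye-loaded HTR2A-CHO cells. Fluorescence followed for 3 min, sampled every second.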
# [5] = target: Beta-2 adrenergic receptor (Homo sapiens) (UniProt P07550); test: Adrenergic beta2 receptor (ADRB2) small molecule agonists, cell-based qHTS assay (AID 1963593); conditions: CHO-ADRB2 cells, cAMP HTRF, 30 min; activation: at 92.4 µM (top of the series) unless noted;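 for activation: CHO cells stably overexpressing human ADRB2; % is set by controls: 0 for no effect and ±100 for the full control effect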
# Procedure, shortened: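 CHO cells stably over-expressing ADRB2 were plated overnight at 37C, then dosed with compounds plus a stimulation mix containing 100uM IBMX and 25uM Ro-20-1724 for 0.5hr at room temperature. cAMP was measured by HTRF competition, 1hr.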
# [6] = cAMP Responsive Elements (CRE) small molecule antagonists, cell-based qHTS assay (AID 1963591; active = well fitted inhibition curve with a large enough effect in the signal ratio in the repeat runs, not every such curve was filed as active; inconclusive = weak or mixed curves, or effect the other way; the % refers to the signal ratio; for activity change, negative = inhibition: % is set by controls: 0 for no effect and ±100 for the full control effect); conditions: CRE-bla HEK293T, beta-lactamase FRET ratio; activity change, negative = inhibition: at 92.4 µM (top of the series) unless noted
# Procedure, shortened: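 CRE-bla HEK293T cells plated 18 h, then given compound plus NKH477 at 0.25 uM final for 3 h at 37C. Beta-lactamase reporter read with LiveBLAzer B/G FRET substrate after 2 h at room temperature.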
# [7] = cAMP Responsive Elements (CRE) small molecule agonists, cell-based qHTS assay (AID 1963590); conditions: CRE-bla HEK293T, beta-lactamase FRET ratio, 3 h; activation: at 92.4 µM (top of the series) unless noted
# Procedure, shortened: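 CRE-bla HEK 293T cells, 2,000/well in DMEM with 10% dialyzed FBS and 25 mM HEPES, pre-incubated 18 h at 37 C, then exposed to compound 3 h at 37 C. Beta-lactamase reporter read with LiveBLAzer B/G FRET substrate after 2 h at room temperature.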
# [8] = target: Muscarinic acetylcholine receptor M1 (Homo sapiens) (UniProt P11229); test: Cholinergic receptor muscarinic 1 (CHRM1) small molecule antagonists, cell-based qHTS assay (AID 1963588); note: nearly all actives have a fitted effect of over 40% in size
# Procedure, shortened: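 CHRM1-CHO calcium-flux assay, antagonist mode. Cells were seeded 18 h, dye-loaded 1 h at 37 C and given compound for 5 min at RT, then acetylcholine was added at 50nM. FDSS fluorescence was read 3 min; 15 concentrations, three runs.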
# [9] = target: Beta-2 adrenergic receptor (Homo sapiens) (UniProt P07550); test: Adrenergic beta2 receptor (ADRB2) small molecule antagonists, cell-based qHTS assay (AID 1963592); conditions: CHO-ADRB2 cells, isoproterenol-stimulated cAMP HTRF ratio, 0.5 h; activity change, negative = inhibition: at 92.4 µM (top of the series) unless noted; note: nearly all actives have a fitted effect of over 50% in size
# Procedure, shortened: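 Cells (CHO, stable ADRB2 overexpression) incubated 18-20hr at 37C; compounds added from DMSO; agonist mix (1nM isoproterenol, 100uM IBMX, 25uM Ro-20-1724) added; 0.5hr RT; d2-cAMP and anti-cAMP-cryptate added; 1hr RT; 665/615 nm read.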
# [10] = target: 5-hydroxytryptamine receptor 2A (Homo sapiens) (UniProt P28223); test: 5-hydroxytryptamine receptor 2A (HTR2A) small molecule agonists, cell-based qHTS assay (AID 1963587); conditions: HTR2A-CHO cells, calcium flux fluorescence, agonist mode; activation: at 76.8 µM (top of the series); note: nearly all actives have a fitted effect of over 30% in size
# Procedure, shortened: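 HTR2A-CHO cells, plated 18 h at 37 C/5% CO2, dye-loaded 1 h at 37 C; compounds in DMSO added by pin tool (agonist mode). Intracellular calcium flux read as kinetic fluorescence on FDSS over 2 min at 1 s intervals.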
# Potency is the fitted concentration of half-maximal effect.
smiles,measurement,setting,value
COP(=S)(OC)Oc1ccc(S(N)(=O)=O)cc1,Potency,[1],"inconclusive: 0.0793 µM [fluorescent, full curve]"
same,Potency,[2],"inconclusive: 3.54 µM [fluorescent, full curve]"
same,Potency,[3],inactive
same,Potency,[4],inactive
same,Potency,[5],"inconclusive: 3.76 µM [activator, partial curve, poor fit]"
c1ccc2c(c1)-c1cccc3cccc-2c13,Potency,[1],"inconclusive: 14.5 µM [fluorescent, full curve]"
same,Potency,[2],"inconclusive: 36.7 µM [fluorescent, partial curve] and inconclusive: 36.3 µM [fluorescent, partial curve]"
same,"activity change, negative = inhibition",[6],inconclusive: 10.1%
same,activation,[5],inconclusive: 1.24% and inconclusive: 38.8%
CC(C)CP(=S)(S)CC(C)C,Potency,[1],inconclusive: 16.2 µM [activator]
same,activation,[2],inconclusive: 35.1%
same,Potency,[6],inactive
COP(N)(=S)OC,Potency,[1],"inconclusive: 45.8 µM [fluorescent, partial curve]"
same,Potency,[2],inconclusive: 36.3 µM [activator]
same,Potency,[4],inactive
same,activation,[5],inconclusive: 27.4%
CCOP(=S)(OCC)Oc1cc(-c2ccccc2)on1,Potency,[1],"inconclusive: 1.45 µM [fluorescent, full curve]"
same,Potency,[2],"inconclusive: 1.62 µM [fluorescent, full curve]"
same,Potency,[3],inactive
same,Potency,[7],"inconclusive: 61.1 µM [rising, partial curve, poor fit]"
same,Potency,[6],inconclusive: 61.1 µM [activator]
same,activation,[5],inconclusive: 4.19%
CCOC(=O)C(C)OC(=O)c1cc(Oc2ccc(C(F)(F)F)cc2Cl)ccc1[N+](=O)[O-] (stereo not given),Potency,[1],"inconclusive: 36.2 µM [fluorescent, partial curve]"
same,Potency,[2],"inconclusive: 12.8 µM [rising, partial curve]"
same,Potency,[3],"inconclusive: 16.2 µM [rising, full curve] and inconclusive: 11.5 µM [rising, full curve]"
same,Potency,[4],"inconclusive: 0.0334 µM [inhibitor, full curve, poor fit]"
same,Potency,[8],"inconclusive: 47.2 µM [inhibitor, partial curve, poor fit]"
same,Potency,[5],"inconclusive: 27.2 µM [inhibitor] and inconclusive: 27.3 µM [inhibitor, partial curve, poor fit]"
CCOP(=S)(OCC)SCCSCC,Potency,[1],"inconclusive: 11.9 µM [fluorescent, partial curve] and inconclusive: 974 nM [fluorescent, full curve]"
same,Potency,[2],"inconclusive: 421 nM [fluorescent, full curve] and inconclusive: 245 nM [fluorescent, partial curve, poor fit]"
same,Potency,[5],"inconclusive: 126 nM [inhibitor, single point] and inactive"
CCOP(=O)(OCC)Oc1nc(Cl)c(Cl)cc1Cl,Potency,[1],inconclusive: 0.51 µM [fluorescent]
same,Potency,[2],"inconclusive: 1.02 µM [fluorescent, full curve]"
same,Potency,[3],"inconclusive: 40.5 µM [falling, partial curve, poor fit]"
same,Potency,[7],inconclusive: 19.2 µM
same,Potency,[9],"inconclusive: 54.2 µM [falling, partial curve, poor fit]"
same,activation,[5],inconclusive: -1.71%
CCOP(=S)(OCC)SCSC(C)(C)C,Potency,[1],"inconclusive: 20.6 µM [activator, full curve] and inconclusive: 28.9 µM [fluorescent, partial curve]"
same,Potency,[2],"inconclusive: 1.16 µM [fluorescent, full curve] and inconclusive: 513 nM [fluorescent, full curve]"
same,Potency,[10],"inconclusive: 55.4 µM [activator, single point]"
same,Potency,[5],"inconclusive: 15.5 µM [inhibitor, single point]"
same,activation,[5],inconclusive: 7.82%
CNC(=O)Oc1cc(C)cc(C(C)C)c1,Potency,[1],"inconclusive: 2.89 µM [fluorescent, full curve]"
same,Potency,[2],"inconclusive: 11.5 µM [fluorescent, partial curve]"
same,activation,[5],inconclusive: -32.6%
CNC(=O)Oc1cc(C)c(N(C)C)c(C)c1,Potency,[1],"inconclusive: 2.05 µM [fluorescent, full curve]"
same,Potency,[2],"inconclusive: 16.2 µM [fluorescent, partial curve]"
same,Potency,[4],inactive
same,Potency,[5],"inconclusive: 0.77 µM [inhibitor, partial curve, poor fit]"
CCOP(=S)(OCC)Oc1cc(C)nc(N(CC)CC)n1,Potency,[1],"inconclusive: 16.2 µM [fluorescent, partial curve]"
same,Potency,[2],"inconclusive: 5.13 µM [fluorescent, partial curve]"
same,Potency,[4],"inconclusive: 3.75 µM [inhibitor, partial curve, poor fit]"
same,Potency,[7],"inconclusive: 30.6 µM [activator, partial curve, poor fit]"
same,Potency,[6],inconclusive: 6.86 µM [activator]
same,Potency,[5],inactive

# A portion from further up:
smiles,measurement,setting,value
CNC(=O)Oc1cc(C)cc(C(C)C)c1,Potency,[2],"inconclusive: 11.5 µM [fluorescent, partial curve]"
same,activation,[5],inconclusive: -32.6%
